# Data as given in PubChem BioAssay AID2685 (National Center for Advancing Translational Sciences (NCATS), 2010).
# Among all 320,000 compounds or so, about 2,100 (0.66%) were called active. Inconclusive means that the source gave no clear call. Such entries were picked first, then a sample of the others. Calls follow the shape of the dose curve; as a rule, active = well fitted inhibition curve with a large enough effect in the signal ratio, with a control signal flat (not every such curve was filed as active); inconclusive = small, poorly fitted or top-dose-only effect, or effect the other way, or a change in a side signal; inactive = flat fitted curve, though single readings scatter; the % refers to the signal ratio. Potencies of inconclusive entries are doubtful fits and often do not repeat.
# Assay: qHTS Assay for Lipid Storage Modulators in Drosophila S3 Cells
# Conditions: BODIPY lipid droplet fluorescence, 18-24 h, cells fed with added oleic acid; lipid storage change, negative = inhibition: at 46.1 µM (top of the series) unless noted
# Outline: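 Drosophila S3 cells loaded with oleic acid (400 uM, as added) and compounds at several concentrations; lipid droplets imaged by 488-nm laser-scanning cytometry, 500–530 nm intensity and object ratio to cell channel. Percent activity normalized to 20 uM Triacsin C.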
# % is scaled to controls: 0 for no effect and ±100 for the full control effect; potency is read from the fitted curve at half-maximal effect.
SMILES,"lipid storage change, negative = inhibition",Potency,outcome
CC(=O)Nc1ccc(S(=O)(=O)c2ccc(N)cc2)cc1N,inconclusive: 0.301%,–,–
Cc1cc(OCC(=O)N2CCN(c3ccc(F)cc3)CC2)c2c(C)cc(=O)oc2c1,inconclusive: 15.1%,–,–
COc1ccc(CCNc2oc(-c3ccccc3OC)nc2C#N)cc1,–,"inconclusive: 1.84 µM [rising, partial curve]",–
Cc1ccc(Cl)cc1N1CCN(C(=O)c2ccc(CS(=O)Cc3ccc(Cl)cc3)o2)CC1 (stereo unspecified),–,"inconclusive: 29.1 µM [cytotoxic, single point]",–
O=C(Cc1ccc(Nc2nc(=S)[nH]c3ccccc23)cc1)NC1CCCCC1,–,"inconclusive: 2.91 µM [activator, single point]",–
COc1ccc(-c2cn[nH]c2-c2ccc(OC)cc2O)cc1,inconclusive: 448%,–,–
COc1ccc2[nH]c(C(=O)O)c(CCC(=O)O)c2c1,–,"inconclusive: 0.206 µM [falling, full curve, poor fit]",–
COCCN(C(=O)CCc1nnc(Cc2c[nH]c3ccccc23)o1)C(C)C,inconclusive: -51.9%,–,–
COc1ccc(CCNC(=O)CCOc2cc(C)ccc2C)cc1OC,–,–,inactive [at 46.1 µM]
CC(C)(C)NC(=O)[C@]1(C)CCC[C@@]2(C)C3CC[C@@]4(C)C[C@]3(CCC21)CC4=O (stereo partly specified),–,"inconclusive: 18.4 µM [activator, single point]",–
CC1CCN(C(=O)COC(=O)c2nn(C)c(=O)c3ccccc23)CC1,–,"inconclusive: 20.6 µM [cytotoxic, single point]",–
CC(=O)Oc1cccc(N2C(=O)C3CC=CCC3C2=O)c1 (stereo unspecified),inconclusive: -20.6%,–,–
Cc1ccc(CN2CCNC(=O)C2CC(=O)NCCCn2cccn2)o1 (stereo unspecified),inconclusive: -35.3%,–,–
O=C1COc2ccc(C(=O)COC(=O)C3CCN(S(=O)(=O)c4cccs4)CC3)cc2N1,inconclusive: -9.77%,–,–
COc1ccc(CN(C)S(=O)(=O)c2nnc(NC(=O)c3cccc(F)c3)s2)cc1,–,–,inactive [at 46.1 µM]
O=C(CN1CCOc2ccccc21)NCc1cccs1,inconclusive: -53.9% [at 0.0737 µM],–,–
CCN=C(Nc1ccc(Cl)cc1)c1cccnc1,inconclusive: 13.4%,–,–
Cc1sc2c(c1C)c(=O)n(-c1ccccc1)c(=O)n2CC(=O)NCC1CCCO1 (stereo unspecified),inconclusive: 1.82%,–,–
O=C(Cn1cnc2ccccc2c1=O)N1CCc2ccccc2C1,inconclusive: 12.8%,–,–
CC1Cc2ccccc2N1C(=O)CSc1nnc2sc3ccccc3n12 (stereo unspecified),–,"inconclusive: 16.4 µM [falling, partial curve, poor fit]",–
CC1Cn2c(nc3sc4c(c3c2=O)CC(C)(C)OC4)N1CCO (stereo unspecified),–,"inconclusive: 23.1 µM [rising, partial curve, poor fit]",–

# A second format for part of the listing above:
SMILES	lipid storage change, negative = inhibition	Potency	outcome
O=C1COc2ccc(C(=O)COC(=O)C3CCN(S(=O)(=O)c4cccs4)CC3)cc2N1	inconclusive: -9.77%	–	–
CCN=C(Nc1ccc(Cl)cc1)c1cccnc1	inconclusive: 13.4%	–	–
